According to PubChem BioAssay AID1347076 (National Center for Advancing Translational Sciences (NCATS), 2019):
The whole screen tested about 400,000 compounds, of which about 13,000 (3.2%) were called active. Inconclusive means that the source gave no clear call. Such entries were picked first, then a sample of the others. The call rests on the fitted dose curve; in most records, active means well fitted cell-killing curve with a large enough effect; inconclusive means small, poorly fitted or top-dose-only effect, or effect the other way; inactive means flat fitted curve, though single readings scatter. Potencies beside an inconclusive call are fits to weak or partial responses and may not hold up.

assay: qHTS assay for MDR1-selective chemotherapeutics: Primary screen using the drug-selected MDR subline cells KB-V1; conditions: KB-V1 MDR cells viability, CellTiter-Glo, 72 h; activity change, negative = cytotoxicity: at 46.1 µM (top of the series); further: nearly all actives have a fitted effect of over 60% in size
In short: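 KB-V1 MDR subline cells in DMEM (phenol-red free, 10% FBS) exposed to compounds in qHTS concentration series for 72 h at 37 degrees C. Viability read by CellTiter-Glo luminescence; concentration-effect curves fitted after normalization and correction.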
On the % scale 0 is the no-effect control and ±100 the full control effect; potency means the concentration at half of the fitted maximal effect.

Structure (SMILES) | Potency | activity change, negative = cytotoxicity
COc1ccc(CNC(=O)c2cc(SC)ccc2Cl)cc1OC | inconclusive: 20.6 µM [cytotoxic, partial curve] | –
CCCCN1C2=NCCCN2c2cc(C)c(C)cc21 | inconclusive: 18.4 µM [cytotoxic, single point] | –
Cc1cc(C(=O)COc2ccccc2C(N)=O)c(C)n1C | inconclusive: 29.1 µM [cytotoxic, single point] | –
CCN(CC)C(=O)CSC(=Nc1ccccc1F)NC#N | – | inactive: 0.48%
COc1cc2c(cc1O)CC[C@@H]1[C@@H]2CC[C@]2(C)[C@@H](O)CC[C@@H]12 | active: 5.8 µM | –
CCOC(=O)C1CCN(C2CCN(Cc3nc(-c4ccccc4)no3)CC2)CC1 | inconclusive: 20.6 µM [cytotoxic, single point] | –
O=C(O)CCCNC(=O)Cc1ccccc1 | inconclusive: 29.1 µM [rising, single point] | –
COCCCN1C(=O)c2ccc(C(=O)N3CCN(c4ccccc4OC)CC3)cc2C1=O | inconclusive: 29.1 µM [rising, single point] | –
COC(=O)c1ccc(CSc2nc3c(cnn3-c3ccc(C)cc3)c(=O)[nH]2)o1 | inconclusive: 18.4 µM [cytotoxic, single point] | –
O=C(COc1ccccc1C(=O)c1cnn(-c2ccccc2)c1)Nc1ccccc1 | inconclusive: 11.6 µM [cytotoxic, partial curve] | –
CCOC(=O)N(C)c1c(CC)nc2c(OCc3ccc(C(F)(F)F)cc3)cccn12 | inconclusive: 7.31 µM [cytotoxic, partial curve] | –
CO[C@H]1CN(C)C(=O)c2ccc(NC(=O)C3CCC3)cc2OC[C@H](C)N(Cc2ccccn2)C[C@@H]1C | – | inactive: -6.43%
Cc1cccc(NC(=O)CSc2nncn2C)c1 | – | inactive: 0%
O=C(COC(=O)[C@H](Cc1ccccc1)NC(=O)c1cccs1)Nc1c(Cl)cccc1Cl | inconclusive: 23.1 µM [rising, partial curve, poor fit] | –
O=C1N=C(N2CCN(c3ccccc3)CC2)S/C1=C\c1cn[nH]c1-c1ccccc1 | inconclusive: 5.17 µM [cytotoxic, full curve] | –
COC(=O)c1ccc2nc(-c3cccc(Br)c3)c(CC3CCCCC3)n2c1 | active: 13 µM | –
Cc1ccc(N=CC2=C(O)CC(c3ccco3)CC2=O)cc1 (configuration not stated) | inconclusive: 7.31 µM [rising, partial curve, poor fit] | –
CCN(CC)CCN(C(=O)c1ccco1)c1nc2ccc(Br)cc2s1 | inconclusive: 6.51 µM [rising, partial curve, poor fit] | –
CC1CCN(C(=O)/C=C/c2ccc(C(C)(C)C)cc2)CC1 | inconclusive: 29.1 µM [cytotoxic, single point] | –
COc1cccc(C(=O)NCCS(=O)(=O)N2CCC(C)CC2)c1 | active: 23.1 µM | –
CCc1nnc(NC(=O)CCN(c2cc(C)cc(C)c2)S(=O)(=O)c2ccc(Cl)cc2)s1 | active: 2.59 µM | –
Cc1nn2c(NCc3ccccn3)cc(C(C)C)nc2c1-c1ccccc1 | inconclusive: 14.6 µM [cytotoxic, partial curve, poor fit] | –
CCCCN(C)CCCNC(=O)c1ccc2c(c1)N(CC)C(=O)c1ccccc1S2=O (configuration not stated) | inconclusive: 9.2 µM [rising, partial curve, poor fit] | –

Structure (SMILES) | Potency | activity change, negative = cytotoxicity
COc1ccc(-c2c(C)nn(-c3ccccc3)c2N)cc1 | – | inactive: -6.96%
CC(C)Cn1c(=O)c(C(=O)NCc2ccccn2)c(O)c2ccccc21 | inconclusive: 20.6 µM [cytotoxic, single point] | –
CCOC(=O)c1c(CN2CCN(CCO)CC2)n(C)c2cc(Br)c(OC)cc12 | inconclusive: 11.6 µM [cytotoxic, partial curve, poor fit] | –
Cc1ccc(S(=O)(=O)c2c(Nc3cc(F)ccc3F)sc(C(=O)c3ccc(F)cc3)c2N)cc1 | inconclusive: 18.4 µM [cytotoxic, single point] | –
CCCC1CCc2c(sc(N)c2C(N)=O)C1 (configuration not stated) | active: 16.4 µM | –
Cn1nnnc1SCC(=O)NC(C)(C)C | inconclusive: 29.1 µM [rising, single point] | –
O=C1[C@H]2[C@@H](C3CC3)N3C(=O)CN(CC4CC4)C(=O)[C@@]3(Cc3ccccc3)[C@H]2C(=O)N1c1ccccc1 | – | inactive: 0%
O=C(CSc1nc2c([nH]c3ccccc32)c(=O)n1-c1ccc(Cl)cc1)N1CCOCC1 | – | inactive: -38%
N#Cc1c2ccc(OCC(=O)NCc3ccco3)cc2n2ccccc12 | – | inactive: 3.41%
Cc1cc(C)cc(NC(=O)C2CCCN(C(=O)c3cnn(-c4ccccc4)c3-n3cccc3)C2)c1 (configuration not stated) | inconclusive: 18.4 µM [cytotoxic, partial curve, poor fit] | –
Cc1sc2ncnc(SCC(=O)N(C)C3CCS(=O)(=O)C3)c2c1C (configuration not stated) | inconclusive: 29.1 µM [cytotoxic, single point] | –
COc1cc(OC)c(N(C)S(=O)(=O)c2cccc(C(=O)OCC(=O)N(C)C3CCCCC3)c2)cc1Cl | inconclusive: 9.2 µM [cytotoxic, partial curve, poor fit] | –
O=C(N/N=C/c1c(O)ccc2ccccc12)c1cccnc1 | inconclusive: 2.91 µM [cytotoxic, full curve] | –
Cc1cccc(NC(=O)CSc2c(C)cnc3c2c(=O)n(C)c(=O)n3C)c1C | – | inactive: 2.3%
Cc1cc(S(=O)(=O)n2ccnc2)c(Cl)cc1Cl | – | inconclusive: 14.3%
O=S(=O)(NCC(c1ccco1)N1CCOCC1)c1cc(F)ccc1F (configuration not stated) | – | inactive: 8.46%
O=[N+]([O-])c1ccc(N2CCN(C(=S)Nc3ccc(F)cc3)CC2)cc1 | inconclusive: 9.2 µM [cytotoxic, partial curve] | –
CCOCCSc1nc2c(c(=O)[nH]c(=O)n2C)n1CCCc1ccccc1 | inconclusive: 7.31 µM [cytotoxic, partial curve, poor fit] | –
Cn1c(=O)n(C)c2cc([N+](=O)[O-])c(N3CCN(C(=O)c4cccc(F)c4)CC3)cc21 | inconclusive: 3.66 µM [cytotoxic, full curve, poor fit] | –
CCn1cc(S(=O)(=O)Nc2nc3ccc(OC)cc3s2)cn1 | inconclusive: 29.1 µM [rising, single point] | –
Fc1cccc(Cl)c1CSc1nnc(-c2ccncc2)o1 | – | inconclusive: 31.9%
Cc1ccc(NC(=O)C(NC2CCCC2)c2ccccc2)cc1Cl (configuration not stated) | inconclusive: 16.4 µM [cytotoxic, partial curve] | –
O=C(NCCc1ccc(Cl)cc1)C1CCCN(S(=O)(=O)c2cnc[nH]2)C1 (configuration not stated) | inconclusive: 11.6 µM [rising, single point] | –

Structure (SMILES) | Potency | activity change, negative = cytotoxicity
C=CCNC(=S)NNC(=O)C(CCCC)CC(C)O (configuration not stated) | – | inactive: 5.61%
CC1(C)CC(=O)C(=Cc2cn(-c3ccccc3)nc2-c2ccccc2)C(=O)C1 | inconclusive: 29.1 µM [rising, partial curve, poor fit] | –
O=C(Nc1ccc(Cl)c(Cl)c1)OCc1cccnc1 | inconclusive: 29.1 µM [cytotoxic, single point] | –
Cc1ccc(C(=O)N(CC(=O)NC2CCCCC2)c2ccccc2F)s1 | inconclusive: 18.4 µM [cytotoxic, single point] | –
O=S(=O)(Nc1ccc(Cl)cn1)c1ccc(F)cc1 | – | inactive: 0%
CC(C)C[C@H]1CNC(=S)N1C[C@H]1CCCN1C[C@H](Cc1ccc(O)cc1)N1C[C@H](Cc2ccc(O)cc2)N(CC2CCCCC2)C1=S | – | inactive: -8.38%
CN(Cc1cn(C)nc1-c1cccc(Cl)c1)Cc1nccn1C | inconclusive: 14.6 µM [cytotoxic, partial curve] | –
Cc1ccn2c(-c3n[nH]c(=S)n3C)c(C)nc2c1 | – | inactive: 4.18%
CC1=C(C(=O)Nc2ccccc2)C(CC(C)C)n2nc(SCc3ccccc3C)nc2N1 (configuration not stated) | – | inactive: 15.2%
Cc1ccc(-n2nc(C)c(NC(=O)CCl)c2C)cc1C | active: 16.4 µM | –
CC(C)c1cccc(C(C)C)c1NC(=O)CCl | inconclusive: 29.1 µM [cytotoxic, single point] | –
COc1cc(C(CCN2CCCCC2)c2c(OC)cc(OC)c3c(-c4ccccc4)cc(=O)oc23)cc(OC)c1OC (configuration not stated) | inconclusive: 0.58 µM [cytotoxic, full curve, poor fit] | –
O=C(O)Cc1ccc(NC(=O)Nc2cccc3ccccc23)cc1 | inconclusive: 29.1 µM [rising, single point] | –
CC1(C)CC(=O)C(C=Nc2ccccc2C(=O)O)=C(O)C1 | – | inactive: -0.956%
COc1ccc(N(CC(=O)Nc2c(C)n(C)n(-c3ccccc3)c2=O)S(=O)(=O)c2ccccc2)cc1OC | inconclusive: 25.9 µM [rising, partial curve, poor fit] | –
O=C1CSC(c2cn(-c3ccccc3)nc2-c2cccs2)N1CC1CCCO1 (configuration not stated) | inconclusive: 9.2 µM [cytotoxic, partial curve, poor fit] | –
O=C(c1ccc(Cl)c(S(=O)(=O)N2CCOCC2)c1)N(Cc1nnc(-c2ccccc2Cl)o1)C1CC1 | inconclusive: 6.51 µM [cytotoxic, partial curve] | –
Cn1ccnc1/C(=N\NC(=O)c1ccccc1)c1cccc([N+](=O)[O-])c1 | inconclusive: 18.4 µM [cytotoxic, partial curve, poor fit] | –
Cc1cc(C(C)c2ccccc2)c(O)c(CN2CCOCC2)c1C (configuration not stated) | inconclusive: 25.9 µM [cytotoxic, partial curve, poor fit] | –
COc1cccc(/C=N/NC(=O)C(=O)Nc2ccccc2OC(F)(F)C(F)F)c1 | – | inactive: 0%
Cc1ccc(C(=O)c2ccccc2C(=O)OCC(=O)NC(C)(C)C)cc1 | inconclusive: 32.6 µM [cytotoxic, single point] | –

Random excerpt: three entries already listed, in no set order.
Structure (SMILES) | Potency | activity change, negative = cytotoxicity
CN(Cc1cn(C)nc1-c1cccc(Cl)c1)Cc1nccn1C | inconclusive: 14.6 µM [cytotoxic, partial curve] | –
O=C(O)Cc1ccc(NC(=O)Nc2cccc3ccccc23)cc1 | inconclusive: 29.1 µM [rising, single point] | –
CC1=C(C(=O)Nc2ccccc2)C(CC(C)C)n2nc(SCc3ccccc3C)nc2N1 (configuration not stated) | – | inactive: 15.2%
